Measurements as given in publication PMC8080264.
No constants are given. Whether binding was seen depends on the method and setting. In cells and extracts the contact can be indirect. Some results given as binding are weak or reduced against the parent protein; the word gives no strength.

Protein sequences, listed by entry. Tags and fused reporters are not part of them. Residues count along the entry.
UniProt Q9UQQ2: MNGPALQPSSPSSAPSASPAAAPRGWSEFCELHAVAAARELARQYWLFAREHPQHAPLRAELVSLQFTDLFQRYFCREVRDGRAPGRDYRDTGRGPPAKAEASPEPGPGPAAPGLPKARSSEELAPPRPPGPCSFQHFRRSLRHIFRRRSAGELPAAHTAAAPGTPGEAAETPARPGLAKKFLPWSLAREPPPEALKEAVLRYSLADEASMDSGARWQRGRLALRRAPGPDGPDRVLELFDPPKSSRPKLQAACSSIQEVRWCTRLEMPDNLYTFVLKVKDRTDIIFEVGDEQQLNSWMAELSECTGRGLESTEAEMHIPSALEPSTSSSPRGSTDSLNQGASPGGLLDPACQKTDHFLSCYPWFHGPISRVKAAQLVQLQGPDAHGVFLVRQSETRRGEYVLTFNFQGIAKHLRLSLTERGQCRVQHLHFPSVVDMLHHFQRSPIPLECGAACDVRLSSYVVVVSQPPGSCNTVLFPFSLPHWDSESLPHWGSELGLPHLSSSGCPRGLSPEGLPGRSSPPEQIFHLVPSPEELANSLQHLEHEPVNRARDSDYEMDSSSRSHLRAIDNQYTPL
UniProt P40189, residues 23-918: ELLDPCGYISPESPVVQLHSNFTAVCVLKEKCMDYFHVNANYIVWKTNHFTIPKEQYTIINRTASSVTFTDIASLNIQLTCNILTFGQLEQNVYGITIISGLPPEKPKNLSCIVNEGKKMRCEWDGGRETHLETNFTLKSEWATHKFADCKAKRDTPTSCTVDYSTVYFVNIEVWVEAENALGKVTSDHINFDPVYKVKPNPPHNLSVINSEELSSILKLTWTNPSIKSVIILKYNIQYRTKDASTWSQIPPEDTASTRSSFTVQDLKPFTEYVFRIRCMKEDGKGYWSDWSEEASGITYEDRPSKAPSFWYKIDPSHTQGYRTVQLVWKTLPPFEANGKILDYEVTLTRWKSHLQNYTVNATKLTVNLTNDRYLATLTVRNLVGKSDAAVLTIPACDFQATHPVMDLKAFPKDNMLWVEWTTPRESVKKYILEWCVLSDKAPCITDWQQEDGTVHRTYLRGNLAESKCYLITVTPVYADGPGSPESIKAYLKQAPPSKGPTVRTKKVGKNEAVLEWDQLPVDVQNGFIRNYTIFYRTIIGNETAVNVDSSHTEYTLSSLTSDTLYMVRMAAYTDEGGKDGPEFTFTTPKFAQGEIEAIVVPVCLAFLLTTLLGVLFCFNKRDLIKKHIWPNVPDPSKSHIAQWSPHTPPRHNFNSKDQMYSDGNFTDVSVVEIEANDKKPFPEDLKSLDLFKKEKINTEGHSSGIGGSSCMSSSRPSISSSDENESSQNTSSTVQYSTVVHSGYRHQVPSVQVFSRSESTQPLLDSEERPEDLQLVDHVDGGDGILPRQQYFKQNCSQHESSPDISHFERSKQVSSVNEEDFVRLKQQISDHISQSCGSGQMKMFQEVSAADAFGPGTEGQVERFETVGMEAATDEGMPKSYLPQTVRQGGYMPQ

Assays:
[1] = target: SH2B adaptor protein 3 (SH2B3) (human) (UniProt Q9UQQ2); test: co-IP; cells lysed in RIPA buffer with protease inhibitors, lysate pre-cleared with protein A/G beads, primary antibody (anti-SH2B3 ab154848 or anti-gp130 sc-655, 1:100) overnight at 4°C, protein A/G beads 2 h, four washes with ice-cold PBS, immunoblot; cell line not stated
[2] = target: IL-6 receptor glycoprotein 130 (gp130) (human (endogenous in human GBM cell lines)) (UniProt P40189); test: as above

IL-6 receptor glycoprotein 130 (gp130) (from UniProt P40189 23-918)
binding [1]: binds

SH2B adaptor protein 3 (SH2B3) (from UniProt Q9UQQ2 1-575)
binding [2]: binds
